Consider 1 molecule from paper doi:10.1101/2022.12.21.521423 (bioRxiv, 2022).

These are yes or no findings as the source states them, for the method shown. Binding seen in cells or lysates may run through a third protein. For some assays here: Binding calls can cover weak binding; strength is not graded here.

In assay [1] the target is chimpanzee LRRC37B-HA (chimpanzee). The assay can be described thus: co-IP.
Assay [2] deals with macaque LRRC37B-HA (macaque). The experiment in a line: co-IP.

B1: FGF13A (ligand, UniProt Q92913-1 1-245)
chain: MAAAIASSLIRQKRQAREREKSNACKCVSSPSKGKTSCDKNKLNVFSRVKLFGSKKRRRRRPEPQLKGIVTKLYSRQGYHLQLQADGTIDGTKDEDSTYTLFNLIPVGLRVVAIQGVQTKLYLAMNSEGYLYTSELFTPECKFKESVFENYYVTYSSMIYRQQQSGRGWYLGLNKEGEIMKGNHVKKNKPAAHFLPKPLKVAMYKEPSLHDLTEFSRSGSGTPTKSRSVSGVLNGGKSMSHNEST
Consider B1, for which the binding result was “binds” in assay [1] and “no binding” in assay [2].
